Among the data in PubChem BioAssay AID493014 (National Center for Advancing Translational Sciences (NCATS), 2011) are AC50 values, retold here.

This is one part of the list. Shown are side measurements of this screen, not its main read-out; they come without a call. Most of these compounds were active or inconclusive in the main read-out, so they are no random draw. Potencies come from curve fits of mixed quality, noted in brackets.

The experiment is described as follows: qHTS Assay to Find Inhibitors of Chronic Active B-Cell Receptor Signaling. As to conditions: ABC-DLBCL IkBa-CBG/CBR reporter, luminescence ratio (green luciferase fused to IkBa over red control in TMD8 lymphoma cells), 4 h. The method, boiled down:
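TMD8 ABC-DLBCL cells carrying doxycycline-inducible green luciferase fused to IkappaBalpha plus unfused red luciferase were exposed to compounds (up to 46 uM) for 4 hrs at 37C. Activity came from the overlap-corrected green/red luminescence ratio.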
Background: qHTS replaces the single test concentration by a dilution series.

[1] abbreviates: measured here: CBR red luminescence, cell number.
Setting [2] is: measured here: IkBa-CBG green luminescence.

With `O=C(O)c1ccc(N=NN2CCCC2)cc1`, the AC50 under setting [1] was 6.31 µM [falling, partial curve].

On to `N/C(=N\OC(=O)Cc1cccs1)c1cccc([N+](=O)[O-])c1`, for which the AC50 under setting [1] was 25.9 µM [rising, partial curve, poor fit].

For the molecule `CCCC1c2ccsc2CCN1C(=S)NC` (stereo not drawn), under setting [1], the concentration at half-maximal activity (AC50) is 10 µM [rising, partial curve, poor fit].

For `COC(=O)c1ccc(-c2ccc(OC)c([C@H]3[C@H]4C=CC[C@@H](C)[C@@H]4C(=O)N3Cc3ccccc3)c2)cc1`, the AC50 under setting [1] is 35.5 µM [rising, single point].

Turning to `O=C(c1ccc(CS(=O)c2ccccc2Cl)o1)N1CCN(c2ccccc2)CC1` (stereo not drawn), the AC50 was 15.8 µM [rising, partial curve, poor fit] under setting [1] and 15.8 µM [falling, partial curve] under setting [2].

`O=C(Nc1ccc(-c2nc3ccccc3s2)c(O)c1)C1=COCCO1`: under setting [1], the concentration at half-maximal activity (AC50) was 0.206 µM [rising, full curve, poor fit].

Consider `Cc1cc(-c2ccc(C)c(S(=O)(=O)NC(C)Cc3ccco3)c2)on1` (stereo not drawn), for which the AC50 under setting [1] was 25.1 µM [falling, single point].

In the case of `CCN(CC)S(=O)(=O)c1cccc(NC(=O)C(=O)c2c(-c3ccccc3)cc3ccccn23)c1`, the AC50 under setting [1] is 6.51 µM [falling, single point].

With `COc1ccc(-n2ccc3ccccc32)cc1`, under setting [1], the AC50 was 2.24 µM [rising, partial curve, poor fit].

Turning to `O=C(NC(=S)Nc1ccc2c(c1)OCCO2)c1ccccc1F`, the AC50 under setting [1] is 17.8 µM [falling, single point].

Turning to `COc1ccccc1-c1ccc(=O)n(CC(=O)NC2CCc3ccccc32)n1` (stereo not drawn), the AC50 under setting [1] is 35.5 µM [falling, partial curve, poor fit].

Consider `CCN(C(=O)Cn1c(=O)oc2ccccc21)c1cccc(C)c1`, for which the AC50 under setting [1] was 2.51 µM [falling, partial curve].

With `COc1cccc(OC)c1NC(=O)c1nc2c(nnn2Cc2ccccc2Cl)c(=O)[nH]1`, under setting [1], the AC50 was 17.8 µM [rising, partial curve, poor fit].

In the case of `CCc1cc(C(=O)NNC(=O)CCl)sc1C`, the AC50 under setting [1] was 35.5 µM [falling, single point].

For `CCOc1ccc(C(=O)OCC(=O)Nc2ccc3c(c2)OCCO3)cc1OC`, the AC50 under setting [1] was 0.731 µM [rising, partial curve, poor fit].

With `CNC(=O)Nc1cc(C)nn1C`, under setting [1], the AC50 is 35.5 µM [rising, partial curve, poor fit].

With `CS(=O)(=O)c1nc(-c2ccc(F)cc2)cc(C(F)(F)F)n1`, the concentration at half-maximal activity (AC50) is 5.62 µM [falling, full curve] under setting [1] and 7.08 µM [rising, full curve, poor fit] under setting [2].

Take `CCOc1ccc(N=c2cc(-c3ccc(OC)cc3)oc3ccccc23)cc1`: the AC50 under setting [1] was 23.1 µM [rising, partial curve, poor fit].

For the molecule `O=c1c2ccccc2nnn1COc1ccc(Cl)cc1Br`, under setting [1], the AC50 was 35.5 µM [rising, single point].

Turning to `O=C(CC1CCCC1)NNC(=O)c1ccc(Br)cc1`, the AC50 under setting [1] was 29.1 µM [rising, single point].

For the molecule `CCCNC(=O)Cn1c(=O)/c(=C\c2ccc(-c3cccc([N+](=O)[O-])c3)o2)s/c1=C\C(=O)C(C)(C)C`, the AC50 under setting [1] was 25.9 µM [rising, single point].

Take `CCOc1ccc(NC(=S)N(CCc2ccncc2)C(C)C)cc1`: the AC50 under setting [1] is 35.5 µM [rising, single point].

Turning to `COC(=O)c1[nH]c2ccc(C)cc2c1NC(=O)CN1CCN(c2ccccc2)CC1`, the AC50 under setting [1] is 0.92 µM [rising, full curve] and the AC50 under setting [2] is 2.31 µM [falling, partial curve, poor fit].

Consider `CC(C)N(Cc1ccccc1)CC(O)COc1ccc(S(=O)(=O)N2CCOCC2)cc1Cl` (stereo not drawn), for which, under setting [1], the AC50 is 35.5 µM [falling, single point].

As to `CCOC(=O)c1c(-c2ccc(C)o2)csc1NC(=S)NC(=O)c1cccs1`, under setting [2], the AC50 is 14.6 µM [rising, partial curve, poor fit].

On to `Oc1cc2c(cc1O)[C@H]1c3ccc(O)c(O)c3OC[C@@]1(O)C2`, for which the AC50 under setting [1] was 14.6 µM [falling, single point].

With `O=C(N/N=C/c1cccs1)c1cc(-c2ccncc2)nc2ccccc12`, the AC50 by setting is: under setting [1], 18.4 µM [rising, partial curve]; under setting [2], 9.2 µM [falling, partial curve].

Turning to `CC(OC(=O)c1cc(O)c2ccccc2c1O)C(=O)Nc1ccc(C(N)=O)cc1` (stereo not drawn), the AC50 under setting [1] is 20.6 µM [falling, partial curve].

Turning to `O=C(Nc1nc2ccc(Cl)cc2s1)c1ccco1`, the AC50 under setting [1] was 4.11 µM [falling, full curve].

Take `O=C(NNC(=O)c1ccc([N+](=O)[O-])cc1)c1ccncc1`: the AC50 under setting [1] was 18.4 µM [falling, partial curve, poor fit].

As to `Cc1ccc(NC(=O)NCc2ccccn2)cc1`, under setting [1], the AC50 was 35.5 µM [falling, single point].

Regarding `Cc1cc(S(=O)(=O)n2cnc3cc([N+](=O)[O-])ccc32)ccc1Cl`, under setting [1], the AC50 was 29.1 µM [falling, single point].

For `Cc1sc(C(C2C(=O)CC(C)(C)CC2=O)C2C(=O)CC(C)(C)CC2=O)cc1[N+](=O)[O-]`, the AC50 under setting [1] was 35.5 µM [rising, single point].

Consider `Cc1cccc(CS(=O)(=O)c2cn(CC(=O)N3CCOCC3)c3ccccc23)c1`, for which, under setting [1], the AC50 is 15.8 µM [falling, single point].

With `O=C(CSc1nnc(-c2cccs2)n1Cc1ccco1)Nc1ccc2c(c1)OCO2`, under setting [1], the AC50 is 11.2 µM [falling, partial curve, poor fit].

With `Cc1c(NS(=O)(=O)c2ccccc2)cc(Cl)c(O)c1C`, the half-maximal activity concentration (AC50) under setting [1] was 0.58 µM [falling, full curve] and the concentration at half-maximal activity (AC50) under setting [2] is 0.58 µM [rising, full curve, poor fit].

For the molecule `CCOc1cc(/C=N/NC(=O)CN2CCCCC2)ccc1OCc1ccc(Cl)cc1`, under setting [1], the AC50 was 9.2 µM [rising, partial curve, poor fit].

Consider `O=C(NCCN1CCOCC1)c1ccccc1N1C(=O)[C@@H]2Cc3c([nH]c4ccccc34)C(c3ccc(F)cc3)N2C1=O` (stereo partly drawn), for which the AC50 under setting [1] was 11.2 µM [falling, partial curve, poor fit].

Turning to `CCOC(=O)c1cccc(NC(=O)Cn2c(CC(=O)N3CCCC3)nc3ccccc32)c1`, the half-maximal activity concentration (AC50) under setting [1] is 0.184 µM [falling, full curve, poor fit].

As for `CCn1c2ccccc2c2nnc(SCc3ccccc3)nc21`, under setting [1], the AC50 is 8.2 µM [falling, partial curve].

On to `COCCCNC(=O)c1c(N)n(-c2cccc(S(N)(=O)=O)c2)c2nc3ccccc3nc12`, for which the AC50 under setting [1] is 29.1 µM [rising, single point].

Turning to `O=C(COC(=O)c1c[nH]c2ccccc12)Nc1cccc(F)c1`, the AC50 under setting [1] was 0.517 µM [falling, full curve, poor fit].

In the case of `CC(O)CNC(=S)Nc1ccccc1` (stereo not drawn), the AC50 under setting [1] is 31.6 µM [rising, single point].

On to `Clc1cncc(Cl)c1N/N=C/c1ccncc1`, for which the AC50 under setting [1] is 4.11 µM [falling, full curve, poor fit] and the AC50 under setting [2] is 23.1 µM [falling, partial curve, poor fit].

Take `C/C(CCc1ccc2c(c1)OCO2)=N\NC(=O)c1ccccc1`: under setting [1], the AC50 is 9.2 µM [falling, partial curve].

With `C=CCc1c(C)nc(SC)nc1Nc1ccc(C(=O)O)cc1`, the AC50 under setting [1] was 29.1 µM [falling, partial curve, poor fit].

In the case of `Cc1cc(C)nc(Nc2cccc(C(F)(F)F)c2)n1`, the AC50 under setting [1] was 0.355 µM [rising, full curve, poor fit].

Regarding `Cc1cc(C)cc(-n2c3nc4ccccc4nc3c3c(=O)n(Cc4ccco4)cnc32)c1`, the AC50 under setting [1] is 0.651 µM [falling, partial curve, poor fit].

`CCOC(=O)c1[nH]c2c(c1-c1ccccc1)C(=O)CC(c1ccc(Cl)cc1)C2` (stereo not drawn): the AC50 under setting [1] was 16.4 µM [rising, partial curve].

Consider `O=C1Cc2cccc3cccc1c23`, for which the AC50 under setting [1] is 0.731 µM [rising, full curve, poor fit].

On to `O=C(CC1C(=O)NCCN1C(=O)Nc1ccc(C(F)(F)F)cc1)Nc1ccc(F)cc1` (stereo not drawn), for which the AC50 under setting [1] was 25.1 µM [falling, single point].

Consider `CCOc1ccc(-c2nc(C)sc2CC(=O)O)cc1`, for which the AC50 under setting [1] is 0.0291 µM [falling, full curve, poor fit].

As to `Cc1cc(C(=O)N/N=C/c2ccco2)n[nH]1`, the AC50 under setting [1] was 14.1 µM [falling, partial curve, poor fit].

Regarding `O=C(Nc1cc(=O)[nH]c2ncnn12)c1ccc(Cl)cc1Cl`, under setting [1], the AC50 was 35.5 µM [falling, single point].

`O=C(COC(=O)C1C2CC3OC(=O)C1C3C2)Nc1ccccc1` (stereo not drawn): the AC50 under setting [1] was 0.112 µM [falling, full curve, poor fit].

Turning to `O=C(O)c1ccccc1-n1c(-c2ccccc2)cc2c1CCCC2=O`, the AC50 under setting [1] is 12.6 µM [falling, single point].

`COc1cccc(C(c2sc3nc(-c4ccco4)nn3c2O)N2CCOCC2)c1` (stereo not drawn): the AC50 under setting [1] was 12.6 µM [rising, single point].

For `COC(=O)Cn1c(=NC(=O)CSCC(=O)NC2CCCCC2)sc2cc(OC)ccc21`, the AC50 under setting [1] was 1.64 µM [rising, partial curve, poor fit].

As for `COc1cc(C2NC(=O)C(C#N)=C(S)N2c2ccc(C)cc2)ccc1OC(C)C` (stereo not drawn), the AC50 under setting [1] was 20.6 µM [rising, partial curve, poor fit].

On to `CN(Cc1cnccn1)Cc1nc(Cc2ccccc2Cl)no1`, for which the AC50 under setting [1] is 35.5 µM [rising, single point].

Consider `CC(=O)Nc1ccc(NC(=O)c2cc(-c3ccc(C)c(C)c3O)n[nH]2)cc1`, for which the concentration at half-maximal activity (AC50) under setting [1] was 11.2 µM [falling, partial curve].

Regarding `O=C(CNC(=O)c1[nH]cnc1C(=O)NC(c1ccccc1)c1ccccc1)OCc1ccccc1`, under setting [1], the AC50 is 1.12 µM [falling, full curve, poor fit].

One may read the AC50 as the concentration at which the activity in the assay is half-maximal.
